This passage reports binding results from article PMC10014102.

The target of this assay is mouse R172H mutp53 (knockin, thymic lymphomas) (mouse (endogenous in thymic lymphomas)) (UniProt P02340). Nature of the assay: co-IP; endogenous proteins in thymic lymphomas of TRIM21+/+ p53R172H/R172H and TRIM21-/- p53R172H/R172H mice.

No constants are given. Whether binding was seen depends on the method and setting. Binding seen in cells or lysates may run through a third protein. Some entries that bind do so weakly or less than the wild type.

B1: mouse TRIM21 (endogenous, thymic lymphomas) (enzyme, UniProt Q62191 1-470)
chain: MSPSTTSKMSLEKMWEEVTCSICLDPMVEPMSIECGHCFCKECIFEVGKNGGSSCPECRQQFLLRNLRPNRHIANMVENLKQIAQNTKKSTQETHCMKHGEKLHLFCEEDGQALCWVCAQSGKHRDHTRVPIEEAAKVYQEKIHVVLEKLRKGKELAEKMEMDLTMQRTDWKRNIDTQKSRIHAEFALQNSLLAQEEQRQLQRLEKDQREYLRLLGKKEAELAEKNQALQELISELERRIRGSELELLQEVRIILERSGSWNLDTLDIDAPDLTSTCPVPGRKKMLRTCWVHITLDRNTANSWLIISKDRRQVRMGDTHQNVSDNKERFSNYPMVLGAQRFSSGKMYWEVDVTQKEAWDLGVCRDSVQRKGQFSLSPENGFWTIWLWQDSYEAGTSPQTTLHIQVPPCQIGIFVDYEAGVVSFYNITDHGSLIYTFSECVFAGPLRPFFNVGFNYSGGNAAPLKLCPLKM
With B1, the binding result is “binds”.
